# Reference: the supplement of paper PMC6411743
# Chains of the proteins cited; added tags and fusions are not shown. Lines headed by an entry give the natural chain unless they say otherwise; changes in a name come on top.
# UniProt P04181: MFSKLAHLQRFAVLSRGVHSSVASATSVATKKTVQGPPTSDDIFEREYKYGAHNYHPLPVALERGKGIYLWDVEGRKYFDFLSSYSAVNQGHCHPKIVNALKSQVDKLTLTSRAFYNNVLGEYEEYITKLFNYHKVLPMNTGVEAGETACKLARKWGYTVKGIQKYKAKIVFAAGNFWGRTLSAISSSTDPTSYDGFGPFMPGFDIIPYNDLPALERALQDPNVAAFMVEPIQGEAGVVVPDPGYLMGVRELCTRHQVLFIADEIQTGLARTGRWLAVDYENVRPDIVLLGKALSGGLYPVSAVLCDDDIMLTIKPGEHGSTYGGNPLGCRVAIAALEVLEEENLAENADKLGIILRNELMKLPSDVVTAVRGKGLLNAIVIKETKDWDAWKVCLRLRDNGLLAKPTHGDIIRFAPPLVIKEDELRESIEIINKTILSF
# UniProt O75145: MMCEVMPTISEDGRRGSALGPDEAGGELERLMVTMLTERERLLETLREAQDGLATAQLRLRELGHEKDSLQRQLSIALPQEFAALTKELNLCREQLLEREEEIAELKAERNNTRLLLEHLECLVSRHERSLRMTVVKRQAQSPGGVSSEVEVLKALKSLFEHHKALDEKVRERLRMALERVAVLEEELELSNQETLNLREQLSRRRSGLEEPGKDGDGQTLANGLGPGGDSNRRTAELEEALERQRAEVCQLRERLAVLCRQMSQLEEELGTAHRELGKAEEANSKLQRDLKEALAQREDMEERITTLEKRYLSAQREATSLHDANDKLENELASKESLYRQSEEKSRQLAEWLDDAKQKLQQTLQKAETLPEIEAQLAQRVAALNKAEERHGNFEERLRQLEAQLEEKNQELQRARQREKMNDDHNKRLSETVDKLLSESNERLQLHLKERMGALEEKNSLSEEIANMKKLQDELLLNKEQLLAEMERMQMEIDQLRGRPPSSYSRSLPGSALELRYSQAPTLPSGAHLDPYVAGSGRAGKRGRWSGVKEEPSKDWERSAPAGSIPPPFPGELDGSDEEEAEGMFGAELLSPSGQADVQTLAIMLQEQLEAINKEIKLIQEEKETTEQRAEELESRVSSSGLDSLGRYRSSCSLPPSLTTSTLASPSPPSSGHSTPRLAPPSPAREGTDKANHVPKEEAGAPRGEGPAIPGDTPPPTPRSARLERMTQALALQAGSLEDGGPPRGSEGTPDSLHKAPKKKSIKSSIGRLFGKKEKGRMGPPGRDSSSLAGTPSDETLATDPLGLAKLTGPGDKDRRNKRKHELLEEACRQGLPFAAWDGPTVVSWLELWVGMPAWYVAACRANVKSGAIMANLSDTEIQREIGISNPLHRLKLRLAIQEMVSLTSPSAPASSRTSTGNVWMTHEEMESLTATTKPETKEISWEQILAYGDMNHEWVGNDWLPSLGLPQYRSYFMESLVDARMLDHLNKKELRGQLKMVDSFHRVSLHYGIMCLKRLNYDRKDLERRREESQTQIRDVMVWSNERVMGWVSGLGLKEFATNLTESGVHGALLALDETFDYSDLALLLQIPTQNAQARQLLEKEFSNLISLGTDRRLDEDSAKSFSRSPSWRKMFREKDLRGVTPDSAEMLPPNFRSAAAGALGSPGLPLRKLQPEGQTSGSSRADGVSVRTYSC
# UniProt O75533, whole entry: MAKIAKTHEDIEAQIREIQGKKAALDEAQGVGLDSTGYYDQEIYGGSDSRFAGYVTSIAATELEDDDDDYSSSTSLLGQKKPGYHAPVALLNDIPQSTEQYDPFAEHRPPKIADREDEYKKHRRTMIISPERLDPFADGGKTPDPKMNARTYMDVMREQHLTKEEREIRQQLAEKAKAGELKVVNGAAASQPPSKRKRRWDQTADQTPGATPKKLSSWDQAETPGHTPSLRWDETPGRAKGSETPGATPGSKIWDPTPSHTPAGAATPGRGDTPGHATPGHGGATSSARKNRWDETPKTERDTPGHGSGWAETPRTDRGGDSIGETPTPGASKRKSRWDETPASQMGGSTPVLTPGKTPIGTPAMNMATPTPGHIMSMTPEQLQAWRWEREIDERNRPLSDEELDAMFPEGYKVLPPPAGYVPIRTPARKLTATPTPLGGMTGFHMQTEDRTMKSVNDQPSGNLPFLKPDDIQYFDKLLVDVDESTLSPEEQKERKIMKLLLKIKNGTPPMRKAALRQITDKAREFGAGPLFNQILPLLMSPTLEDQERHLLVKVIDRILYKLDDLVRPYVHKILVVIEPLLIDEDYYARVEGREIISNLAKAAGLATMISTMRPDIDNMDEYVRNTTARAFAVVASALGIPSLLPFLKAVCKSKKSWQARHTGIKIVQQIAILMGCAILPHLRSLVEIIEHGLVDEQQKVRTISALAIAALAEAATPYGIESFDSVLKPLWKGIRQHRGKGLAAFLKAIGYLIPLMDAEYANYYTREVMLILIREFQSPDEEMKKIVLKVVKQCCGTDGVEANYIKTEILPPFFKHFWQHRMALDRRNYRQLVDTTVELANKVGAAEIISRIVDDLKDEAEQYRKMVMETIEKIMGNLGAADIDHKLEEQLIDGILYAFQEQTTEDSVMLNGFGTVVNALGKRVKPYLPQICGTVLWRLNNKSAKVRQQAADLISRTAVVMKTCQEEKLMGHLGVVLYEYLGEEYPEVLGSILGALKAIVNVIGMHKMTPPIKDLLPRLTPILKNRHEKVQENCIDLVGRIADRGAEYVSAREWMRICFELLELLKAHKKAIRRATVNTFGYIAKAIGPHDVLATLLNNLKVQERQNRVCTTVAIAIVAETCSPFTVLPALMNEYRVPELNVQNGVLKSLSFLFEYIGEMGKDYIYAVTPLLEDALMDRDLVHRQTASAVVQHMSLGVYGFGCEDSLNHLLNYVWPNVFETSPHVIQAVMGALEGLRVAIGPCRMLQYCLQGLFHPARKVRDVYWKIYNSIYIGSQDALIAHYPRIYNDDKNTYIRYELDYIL
# ± gives the standard deviation of the averaged measurements. Some of the results follow.
# Compound: Nc1nc2c(ncn2[C@@H]2O[C@H](COP(=O)(O)OP(=O)(O)OP(=O)(O)O)[C@@H](O)[C@H]2O)c(=O)[nH]1 [guanosine triphosphate]
# Assay: NP40-soluble protein abundance relative to vehicle (solubility fold change) (ratio); higher = more soluble protein in presence of GTP
# Description: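 Solubility proteome profiling in Jurkat crude lysate. Lysate was treated with Mg-GTP (0.1-10 mM) for 10 min at room temperature and 3 min at 37 °C, then solubilised with 0.8% NP40 and benzonase, followed by ultracentrifugation. Proteins were quantified by TMT10 LC-MS/MS; the value is the NP40-soluble abundance relative to the NP40-processed vehicle, from 3 independent experiments.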
Target,NP40-soluble protein abundance (concentration: 0.1mM),NP40-soluble protein abundance (concentration: 0.5mM),NP40-soluble protein abundance (concentration: 1mM),NP40-soluble protein abundance (concentration: 2mM),NP40-soluble protein abundance (concentration: 4mM),NP40-soluble protein abundance (concentration: 6mM),NP40-soluble protein abundance (concentration: 8mM),NP40-soluble protein abundance (concentration: 10mM)
OAT (UniProt P04181),0.9948 ± 0.0051,1.02 ± 0.037,0.975 ± 0.04,0.954 ± 0.088,0.882 ± 0.14,0.881 ± 0.12,0.762 ± 0.067,0.825 ± 0.099
UniProt O75145 and related entries,0.96 ± 0.11,1 ± 0.14,0.997 ± 0.063,1.03 ± 0.12,0.993 ± 0.097,0.974 ± 0.014,1.01 ± 0.072,1 ± 0.03
UniProt P00338 and related entries,0.983 ± 0.024,1.03 ± 0.057,0.901 ± 0.024,0.904 ± 0.065,0.885 ± 0.047,0.878 ± 0.042,0.842 ± 0.028,0.823 ± 0.058
UniProt O75190-2|O75190-4|O75190,1.15 ± 0.062,1.05 ± 0.091,1.14 ± 0.083,1.14 ± 0.078,1.23 ± 0.073,1.14 ± 0.033,1.21 ± 0.084,1.09 ± 0.069
SF3B1 (UniProt O75533),1.05 ± 0.038,1.11 ± 0.065,1.11 ± 0.087,1.15 ± 0.11,1.17 ± 0.12,1.18 ± 0.14,1.19 ± 0.15,1.18 ± 0.12
